{"source": "PubChem BioAssay AID1224829, NIAID | 2016", "purpose": "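Follow-up of TLR4-NF-kappaB regulators using six separate siRNAs for each gene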 (follow-up of hits)", "cell system": "mouse RAW264.7 G9 macrophage reporter cells", "reagent": "single siRNA against mouse genes, 100 nM", "duration": "2 days of siRNA knock-down, then 40 min of LPS before fixing", "challenge": "LPS (Salmonella minnesota R595) at 10 ng/ml", "measured": "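Imaging of GFP-p65 after 40 min of LPS; nuclear over perinuclear ring intensity ratio, scaled to plate median and non-targeting control wells, given as z-score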", "scale": "p65 translocation z-score: higher = more nuclear NF-kappaB p65 after LPS", "rule for the call": "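Active means the replicate-mean z-score lies beyond plus or minus 2, in either direction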", "calls": "active = changed p65 translocation (either direction); inactive = no clear change", "note": "In all, the deposit lists about 3,800 reagents; shown is an unselected part. 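Calls cover raised and lowered translocation; gene median uses one vendor's three siRNAs; qiagen siRNAs acted more weakly than ambion siRNAs.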 A number with no mark means an inactive call. The numbers tell different reagents against one gene apart. Not all columns of the deposit are shown. Reagent sequences are not shown."}
{"target": "Lrrc14 (leucine rich repeat containing 14)", "siRNA no.": 1, "siRNA vendor or control pool": "ambion single siRNA", "p65 translocation z-score, replicate mean": -1.26, "p65 translocation z-score, replicate 1": -1.65}
{"target": "Lrrc14 (leucine rich repeat containing 14)", "siRNA no.": 2, "siRNA vendor or control pool": "ambion single siRNA", "p65 translocation z-score, replicate mean": "-2.47 (active)", "p65 translocation z-score, replicate 1": -2.62}
{"target": "Lrrc14 (leucine rich repeat containing 14)", "siRNA no.": 3, "siRNA vendor or control pool": "ambion single siRNA", "p65 translocation z-score, replicate mean": "-3.56 (active)", "p65 translocation z-score, replicate 1": -2.87}
{"target": "Lrrc14 (leucine rich repeat containing 14)", "siRNA no.": 4, "siRNA vendor or control pool": "qiagen single siRNA", "p65 translocation z-score, replicate mean": "-3.99 (active)", "p65 translocation z-score, replicate 1": -6.11}
{"target": "Lrrc14 (leucine rich repeat containing 14)", "siRNA no.": 5, "siRNA vendor or control pool": "qiagen single siRNA", "p65 translocation z-score, replicate mean": -1.87, "p65 translocation z-score, replicate 1": -1.95}
{"target": "Lrrc14 (leucine rich repeat containing 14)", "siRNA no.": 6, "siRNA vendor or control pool": "qiagen single siRNA", "p65 translocation z-score, replicate mean": -0.694, "p65 translocation z-score, replicate 1": -0.914}
{"target": "Gpd1l (glycerol-3-phosphate dehydrogenase 1-like)", "siRNA no.": 1, "siRNA vendor or control pool": "ambion single siRNA", "p65 translocation z-score, replicate mean": 0.377, "p65 translocation z-score, replicate 1": 0.583}
{"target": "Gpd1l (glycerol-3-phosphate dehydrogenase 1-like)", "siRNA no.": 2, "siRNA vendor or control pool": "ambion single siRNA", "p65 translocation z-score, replicate mean": "-4.06 (active)", "p65 translocation z-score, replicate 1": -3.97}
{"target": "Gpd1l (glycerol-3-phosphate dehydrogenase 1-like)", "siRNA no.": 3, "siRNA vendor or control pool": "ambion single siRNA", "p65 translocation z-score, replicate mean": "-2.37 (active)", "p65 translocation z-score, replicate 1": -2.37}
{"target": "Gpd1l (glycerol-3-phosphate dehydrogenase 1-like)", "siRNA no.": 4, "siRNA vendor or control pool": "qiagen single siRNA", "p65 translocation z-score, replicate mean": 1.07, "p65 translocation z-score, replicate 1": 0.513}
{"target": "Gpd1l (glycerol-3-phosphate dehydrogenase 1-like)", "siRNA no.": 5, "siRNA vendor or control pool": "qiagen single siRNA", "p65 translocation z-score, replicate mean": -1.28, "p65 translocation z-score, replicate 1": -0.808}
{"target": "Gpd1l (glycerol-3-phosphate dehydrogenase 1-like)", "siRNA no.": 6, "siRNA vendor or control pool": "qiagen single siRNA", "p65 translocation z-score, replicate mean": "-3.5 (active)", "p65 translocation z-score, replicate 1": -2.48}
{"target": "Dnajb4 (DnaJ heat shock protein family (Hsp40) member B4)", "siRNA no.": 1, "siRNA vendor or control pool": "ambion single siRNA", "p65 translocation z-score, replicate mean": -0.503, "p65 translocation z-score, replicate 1": -0.503}
{"target": "Dnajb4 (DnaJ heat shock protein family (Hsp40) member B4)", "siRNA no.": 2, "siRNA vendor or control pool": "ambion single siRNA", "p65 translocation z-score, replicate mean": "-4.76 (active)", "p65 translocation z-score, replicate 1": -4.68}
{"target": "Dnajb4 (DnaJ heat shock protein family (Hsp40) member B4)", "siRNA no.": 3, "siRNA vendor or control pool": "ambion single siRNA", "p65 translocation z-score, replicate mean": "2.77 (active)", "p65 translocation z-score, replicate 1": 3.91}
{"target": "Dnajb4 (DnaJ heat shock protein family (Hsp40) member B4)", "siRNA no.": 4, "siRNA vendor or control pool": "qiagen single siRNA", "p65 translocation z-score, replicate mean": 1.64, "p65 translocation z-score, replicate 1": 0.514}
{"target": "Dnajb4 (DnaJ heat shock protein family (Hsp40) member B4)", "siRNA no.": 5, "siRNA vendor or control pool": "qiagen single siRNA", "p65 translocation z-score, replicate mean": "2.41 (active)", "p65 translocation z-score, replicate 1": 1.62}
{"target": "Dnajb4 (DnaJ heat shock protein family (Hsp40) member B4)", "siRNA no.": 6, "siRNA vendor or control pool": "qiagen single siRNA", "p65 translocation z-score, replicate mean": "2.93 (active)", "p65 translocation z-score, replicate 1": 2.21}

A portion taken from the entries so far:
{"target": "Gpd1l (glycerol-3-phosphate dehydrogenase 1-like)", "siRNA no.": 1, "siRNA vendor or control pool": "ambion single siRNA", "p65 translocation z-score, replicate mean": 0.377, "p65 translocation z-score, replicate 1": 0.583}
{"target": "Gpd1l (glycerol-3-phosphate dehydrogenase 1-like)", "siRNA no.": 2, "siRNA vendor or control pool": "ambion single siRNA", "p65 translocation z-score, replicate mean": "-4.06 (active)", "p65 translocation z-score, replicate 1": -3.97}

The listing continues.
{"target": "Acot9 (acyl-CoA thioesterase 9)", "siRNA no.": 1, "siRNA vendor or control pool": "ambion single siRNA", "p65 translocation z-score, replicate mean": 0.407, "p65 translocation z-score, replicate 1": 1.63}
{"target": "Acot9 (acyl-CoA thioesterase 9)", "siRNA no.": 2, "siRNA vendor or control pool": "ambion single siRNA", "p65 translocation z-score, replicate mean": "-4.33 (active)", "p65 translocation z-score, replicate 1": -4.9}
{"target": "Acot9 (acyl-CoA thioesterase 9)", "siRNA no.": 3, "siRNA vendor or control pool": "ambion single siRNA", "p65 translocation z-score, replicate mean": -1.61, "p65 translocation z-score, replicate 1": -1.04}
{"target": "Acot9 (acyl-CoA thioesterase 9)", "siRNA no.": 4, "siRNA vendor or control pool": "qiagen single siRNA", "p65 translocation z-score, replicate mean": 1.49, "p65 translocation z-score, replicate 1": 0.0523}
{"target": "Acot9 (acyl-CoA thioesterase 9)", "siRNA no.": 5, "siRNA vendor or control pool": "qiagen single siRNA", "p65 translocation z-score, replicate mean": "-4.11 (active)", "p65 translocation z-score, replicate 1": -4.11}
{"target": "Acot9 (acyl-CoA thioesterase 9)", "siRNA no.": 6, "siRNA vendor or control pool": "qiagen single siRNA", "p65 translocation z-score, replicate mean": "-2.6 (active)", "p65 translocation z-score, replicate 1": -1.59}
{"target": "Slc16a11", "siRNA no.": 1, "siRNA vendor or control pool": "ambion single siRNA", "p65 translocation z-score, replicate mean": "-2.48 (active)", "p65 translocation z-score, replicate 1": -1.69}
{"target": "Slc16a11", "siRNA no.": 2, "siRNA vendor or control pool": "ambion single siRNA", "p65 translocation z-score, replicate mean": -0.432, "p65 translocation z-score, replicate 1": -1.36}
{"target": "Slc16a11", "siRNA no.": 3, "siRNA vendor or control pool": "ambion single siRNA", "p65 translocation z-score, replicate mean": "-2.81 (active)", "p65 translocation z-score, replicate 1": -2.81}
{"target": "Slc16a11", "siRNA no.": 4, "siRNA vendor or control pool": "qiagen single siRNA", "p65 translocation z-score, replicate mean": "2.65 (active)", "p65 translocation z-score, replicate 1": 1.39}
{"target": "Slc16a11", "siRNA no.": 5, "siRNA vendor or control pool": "qiagen single siRNA", "p65 translocation z-score, replicate mean": "2.76 (active)", "p65 translocation z-score, replicate 1": 0.942}
{"target": "Slc16a11", "siRNA no.": 6, "siRNA vendor or control pool": "qiagen single siRNA", "p65 translocation z-score, replicate mean": -0.197, "p65 translocation z-score, replicate 1": -0.0927}
{"target": "Or8k35 (olfactory receptor family 8 subfamily K member 35)", "siRNA no.": 1, "siRNA vendor or control pool": "qiagen single siRNA", "p65 translocation z-score, replicate mean": "3.73 (active)", "p65 translocation z-score, replicate 1": 1.24}
{"target": "Or8k35 (olfactory receptor family 8 subfamily K member 35)", "siRNA no.": 2, "siRNA vendor or control pool": "qiagen single siRNA", "p65 translocation z-score, replicate mean": -0.225, "p65 translocation z-score, replicate 1": -0.412}
{"target": "Or8k35 (olfactory receptor family 8 subfamily K member 35)", "siRNA no.": 3, "siRNA vendor or control pool": "qiagen single siRNA", "p65 translocation z-score, replicate mean": 0.486, "p65 translocation z-score, replicate 1": 0.579}
{"target": "Prkab1 (protein kinase, AMP-activated, beta 1 non-catalytic subunit)", "siRNA no.": 1, "siRNA vendor or control pool": "ambion single siRNA", "p65 translocation z-score, replicate mean": 1.68, "p65 translocation z-score, replicate 1": 1.92}
{"target": "Prkab1 (protein kinase, AMP-activated, beta 1 non-catalytic subunit)", "siRNA no.": 2, "siRNA vendor or control pool": "ambion single siRNA", "p65 translocation z-score, replicate mean": "-2.08 (active)", "p65 translocation z-score, replicate 1": -2.83}
{"target": "Prkab1 (protein kinase, AMP-activated, beta 1 non-catalytic subunit)", "siRNA no.": 3, "siRNA vendor or control pool": "ambion single siRNA", "p65 translocation z-score, replicate mean": "-3.34 (active)", "p65 translocation z-score, replicate 1": -1.41}
{"target": "Prkab1 (protein kinase, AMP-activated, beta 1 non-catalytic subunit)", "siRNA no.": 4, "siRNA vendor or control pool": "qiagen single siRNA", "p65 translocation z-score, replicate mean": 0.783, "p65 translocation z-score, replicate 1": 1.87}
{"target": "Prkab1 (protein kinase, AMP-activated, beta 1 non-catalytic subunit)", "siRNA no.": 5, "siRNA vendor or control pool": "qiagen single siRNA", "p65 translocation z-score, replicate mean": -1.89, "p65 translocation z-score, replicate 1": -1.4}
{"target": "Prkab1 (protein kinase, AMP-activated, beta 1 non-catalytic subunit)", "siRNA no.": 6, "siRNA vendor or control pool": "qiagen single siRNA", "p65 translocation z-score, replicate mean": "2.29 (active)", "p65 translocation z-score, replicate 1": 0.745}
